{"source": "PubChem BioAssay AID1224830 (NIAID, 2016)", "purpose": "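Genes whose knock-down alters the TNF-alpha reporter response to LPS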 (primary screen)", "system": "human THP-1 monocytic leukaemia cells, TNF dual-luciferase reporter clone, PMA-differentiated to macrophage-like cells", "knock-down reagent": "siRNA pool against human genes, 50 nM", "time to read-out": "LPS for 4 h, given about 3 days after siRNA transfection", "treatment": "bacterial LPS (TLR4 ligand), 10 ng/ml", "read-out": "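TNF firefly reporter luminescence divided by renilla, normalised to the plate median, then turned into a robust z-score for each replicate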", "reading the numbers": "TNF reporter robust z-score: higher = stronger TNF reporter response to LPS", "rule for the call": "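a well is active when its z-score exceeds 2.8 or falls below -1.5; control wells carry no call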", "note": "This is one part, drawn at random, of about 18,000 deposited reagents. Of all reagents, about 2,900 (16%) were called active. 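Calls are made per well; low scores hint the gene aids the LPS response, high scores that it dampens it.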 Repeated entries: four replicate wells of each siRNA pool. No sequences are given here."}
{"Target gene": "FBXL16 (GeneID 146330)", "TNF reporter robust z-score": 3, "Call": "active"}
{"Target gene": "FBXL16 (GeneID 146330)", "TNF reporter robust z-score": 5.69, "Call": "active"}
{"Target gene": "FBXL16 (GeneID 146330)", "TNF reporter robust z-score": 3.17, "Call": "active"}
{"Target gene": "FBXL16 (GeneID 146330)", "TNF reporter robust z-score": 2.32, "Call": "inactive"}
{"Target gene": "FAAH (GeneID 2166)", "TNF reporter robust z-score": 1.78, "Call": "inactive"}
{"Target gene": "FAAH (GeneID 2166)", "TNF reporter robust z-score": 2.54, "Call": "inactive"}
{"Target gene": "FAAH (GeneID 2166)", "TNF reporter robust z-score": 1.59, "Call": "inactive"}
{"Target gene": "FAAH (GeneID 2166)", "TNF reporter robust z-score": 2.99, "Call": "active"}
{"Target gene": "CCL28 (GeneID 56477)", "TNF reporter robust z-score": -1.07, "Call": "inactive"}
{"Target gene": "CCL28 (GeneID 56477)", "TNF reporter robust z-score": 0.13, "Call": "inactive"}
{"Target gene": "CCL28 (GeneID 56477)", "TNF reporter robust z-score": -0.64, "Call": "inactive"}
{"Target gene": "CCL28 (GeneID 56477)", "TNF reporter robust z-score": -0.05, "Call": "inactive"}
{"Target gene": "TMEM45B (GeneID 120224)", "TNF reporter robust z-score": -0.59, "Call": "inactive"}
{"Target gene": "TMEM45B (GeneID 120224)", "TNF reporter robust z-score": -0.26, "Call": "inactive"}
{"Target gene": "TMEM45B (GeneID 120224)", "TNF reporter robust z-score": -0.37, "Call": "inactive"}
{"Target gene": "TMEM45B (GeneID 120224)", "TNF reporter robust z-score": -0.89, "Call": "inactive"}
{"Target gene": "BLK (GeneID 640)", "TNF reporter robust z-score": -1.2, "Call": "inactive"}
{"Target gene": "BLK (GeneID 640)", "TNF reporter robust z-score": 1.01, "Call": "inactive"}
{"Target gene": "BLK (GeneID 640)", "TNF reporter robust z-score": -0.09, "Call": "inactive"}
{"Target gene": "SF1 (GeneID 7536)", "TNF reporter robust z-score": 0.16, "Call": "inactive"}
{"Target gene": "SF1 (GeneID 7536)", "TNF reporter robust z-score": -0.06, "Call": "inactive"}
{"Target gene": "SF1 (GeneID 7536)", "TNF reporter robust z-score": 0.25, "Call": "inactive"}
{"Target gene": "PIGQ (GeneID 9091)", "TNF reporter robust z-score": -0.59, "Call": "inactive"}
{"Target gene": "PIGQ (GeneID 9091)", "TNF reporter robust z-score": 0.51, "Call": "inactive"}
{"Target gene": "PIGQ (GeneID 9091)", "TNF reporter robust z-score": 0.24, "Call": "inactive"}
{"Target gene": "PIGQ (GeneID 9091)", "TNF reporter robust z-score": -0.47, "Call": "inactive"}

Records listed so far with an active call (4):
{"Target gene": "FBXL16 (GeneID 146330)", "TNF reporter robust z-score": 3, "Call": "active"}
{"Target gene": "FBXL16 (GeneID 146330)", "TNF reporter robust z-score": 5.69, "Call": "active"}
{"Target gene": "FBXL16 (GeneID 146330)", "TNF reporter robust z-score": 3.17, "Call": "active"}
{"Target gene": "FAAH (GeneID 2166)", "TNF reporter robust z-score": 2.99, "Call": "active"}

The listing continues:
{"Target gene": "PAM16 (GeneID 51025)", "TNF reporter robust z-score": 0.22, "Call": "inactive"}
{"Target gene": "PAM16 (GeneID 51025)", "TNF reporter robust z-score": 0.82, "Call": "inactive"}
{"Target gene": "PAM16 (GeneID 51025)", "TNF reporter robust z-score": -0.17, "Call": "inactive"}
{"Target gene": "PAM16 (GeneID 51025)", "TNF reporter robust z-score": 0.87, "Call": "inactive"}
{"Target gene": "ADAMTSL1 (GeneID 92949)", "TNF reporter robust z-score": 0.19, "Call": "inactive"}
{"Target gene": "ADAMTSL1 (GeneID 92949)", "TNF reporter robust z-score": 3.71, "Call": "active"}
{"Target gene": "ADAMTSL1 (GeneID 92949)", "TNF reporter robust z-score": 0.93, "Call": "inactive"}
{"Target gene": "ADAMTSL1 (GeneID 92949)", "TNF reporter robust z-score": -0.05, "Call": "inactive"}
{"Target gene": "PCDHGB7 (GeneID 56099)", "TNF reporter robust z-score": -1.72, "Call": "active"}
{"Target gene": "PCDHGB7 (GeneID 56099)", "TNF reporter robust z-score": 0.36, "Call": "inactive"}
{"Target gene": "PCDHGB7 (GeneID 56099)", "TNF reporter robust z-score": -0.84, "Call": "inactive"}
{"Target gene": "PCDHGB7 (GeneID 56099)", "TNF reporter robust z-score": -1.06, "Call": "inactive"}
{"Target gene": "SACK1G (GeneID 644815)", "TNF reporter robust z-score": 0.79, "Call": "inactive"}
{"Target gene": "SACK1G (GeneID 644815)", "TNF reporter robust z-score": 0.76, "Call": "inactive"}
{"Target gene": "SACK1G (GeneID 644815)", "TNF reporter robust z-score": 0.83, "Call": "inactive"}
{"Target gene": "SACK1G (GeneID 644815)", "TNF reporter robust z-score": -0.3, "Call": "inactive"}
{"Target gene": "SP110 (GeneID 3431)", "TNF reporter robust z-score": -1.18, "Call": "inactive"}
{"Target gene": "SP110 (GeneID 3431)", "TNF reporter robust z-score": -0.44, "Call": "inactive"}
{"Target gene": "SP110 (GeneID 3431)", "TNF reporter robust z-score": -1, "Call": "inactive"}
{"Target gene": "SP110 (GeneID 3431)", "TNF reporter robust z-score": -1.4, "Call": "inactive"}
{"Target gene": "SPINT2 (GeneID 10653)", "TNF reporter robust z-score": 0.31, "Call": "inactive"}
{"Target gene": "SPINT2 (GeneID 10653)", "TNF reporter robust z-score": 0.36, "Call": "inactive"}
{"Target gene": "SPINT2 (GeneID 10653)", "TNF reporter robust z-score": 0.56, "Call": "inactive"}
{"Target gene": "SPINT2 (GeneID 10653)", "TNF reporter robust z-score": 0.79, "Call": "inactive"}
{"Target gene": "LBP (GeneID 3929)", "TNF reporter robust z-score": -0.82, "Call": "inactive"}
{"Target gene": "LBP (GeneID 3929)", "TNF reporter robust z-score": -0.01, "Call": "inactive"}
{"Target gene": "LBP (GeneID 3929)", "TNF reporter robust z-score": -0.24, "Call": "inactive"}
{"Target gene": "LBP (GeneID 3929)", "TNF reporter robust z-score": 0.33, "Call": "inactive"}
{"Target gene": "KCNC1 (GeneID 3746)", "TNF reporter robust z-score": -0.98, "Call": "inactive"}
{"Target gene": "KCNC1 (GeneID 3746)", "TNF reporter robust z-score": 1.48, "Call": "inactive"}
{"Target gene": "KCNC1 (GeneID 3746)", "TNF reporter robust z-score": 3.03, "Call": "active"}
{"Target gene": "KCNC1 (GeneID 3746)", "TNF reporter robust z-score": 2.52, "Call": "inactive"}
{"Target gene": "HAGHL (GeneID 84264)", "TNF reporter robust z-score": 0.92, "Call": "inactive"}
{"Target gene": "HAGHL (GeneID 84264)", "TNF reporter robust z-score": 0.55, "Call": "inactive"}
{"Target gene": "HAGHL (GeneID 84264)", "TNF reporter robust z-score": -0.21, "Call": "inactive"}
{"Target gene": "HAGHL (GeneID 84264)", "TNF reporter robust z-score": -0.13, "Call": "inactive"}
